According to publication PMC10720265:
No constants are given. Whether binding was seen depends on the method and setting. Binding seen in cells or lysates may run through a third protein. Some binding calls cover weakened binding; strength is not graded here. Tags and fused reporters may be left off the sequences shown.

Legend:
[1] = target: T1, MYC-tagged ZC3H18^WT (human) (UniProt Q86VM9); assay: co-IP; MYC IP of MYC-tagged ZC3H18^WT or ZC3H18^MUT from HeLa lysates, untagged cells as control; western blot for ARS2, NCBP2, ZCCHC8, MTR4
T1 sequence: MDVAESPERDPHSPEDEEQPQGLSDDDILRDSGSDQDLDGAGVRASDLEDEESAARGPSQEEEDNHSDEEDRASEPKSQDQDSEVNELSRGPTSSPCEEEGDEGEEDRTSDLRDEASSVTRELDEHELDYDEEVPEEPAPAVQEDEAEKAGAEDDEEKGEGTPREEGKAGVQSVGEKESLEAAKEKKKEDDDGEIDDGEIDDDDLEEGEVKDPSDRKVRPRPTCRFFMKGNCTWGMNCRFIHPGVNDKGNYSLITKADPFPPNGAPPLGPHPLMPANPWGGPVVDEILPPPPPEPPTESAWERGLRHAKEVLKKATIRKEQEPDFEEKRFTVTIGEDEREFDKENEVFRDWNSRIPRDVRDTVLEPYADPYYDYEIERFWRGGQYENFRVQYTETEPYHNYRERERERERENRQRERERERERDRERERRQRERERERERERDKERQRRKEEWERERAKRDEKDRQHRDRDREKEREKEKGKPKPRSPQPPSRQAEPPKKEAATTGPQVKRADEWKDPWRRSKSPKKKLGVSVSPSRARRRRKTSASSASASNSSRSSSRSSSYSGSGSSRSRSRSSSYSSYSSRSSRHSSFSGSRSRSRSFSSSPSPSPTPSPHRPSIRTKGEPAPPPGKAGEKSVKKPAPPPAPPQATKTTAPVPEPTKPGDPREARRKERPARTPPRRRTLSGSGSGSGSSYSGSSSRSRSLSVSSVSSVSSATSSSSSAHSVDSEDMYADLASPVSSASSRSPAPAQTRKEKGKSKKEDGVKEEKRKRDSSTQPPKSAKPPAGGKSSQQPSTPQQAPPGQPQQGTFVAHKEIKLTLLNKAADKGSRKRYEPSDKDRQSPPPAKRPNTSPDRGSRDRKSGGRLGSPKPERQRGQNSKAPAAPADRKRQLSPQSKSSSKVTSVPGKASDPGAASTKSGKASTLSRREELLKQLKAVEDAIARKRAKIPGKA

[2] = target: T2, MYC-tagged ZC3H18^WT (human), Q86VM9; assay: as above; settings: remark: other sources report otherwise
T2 chain: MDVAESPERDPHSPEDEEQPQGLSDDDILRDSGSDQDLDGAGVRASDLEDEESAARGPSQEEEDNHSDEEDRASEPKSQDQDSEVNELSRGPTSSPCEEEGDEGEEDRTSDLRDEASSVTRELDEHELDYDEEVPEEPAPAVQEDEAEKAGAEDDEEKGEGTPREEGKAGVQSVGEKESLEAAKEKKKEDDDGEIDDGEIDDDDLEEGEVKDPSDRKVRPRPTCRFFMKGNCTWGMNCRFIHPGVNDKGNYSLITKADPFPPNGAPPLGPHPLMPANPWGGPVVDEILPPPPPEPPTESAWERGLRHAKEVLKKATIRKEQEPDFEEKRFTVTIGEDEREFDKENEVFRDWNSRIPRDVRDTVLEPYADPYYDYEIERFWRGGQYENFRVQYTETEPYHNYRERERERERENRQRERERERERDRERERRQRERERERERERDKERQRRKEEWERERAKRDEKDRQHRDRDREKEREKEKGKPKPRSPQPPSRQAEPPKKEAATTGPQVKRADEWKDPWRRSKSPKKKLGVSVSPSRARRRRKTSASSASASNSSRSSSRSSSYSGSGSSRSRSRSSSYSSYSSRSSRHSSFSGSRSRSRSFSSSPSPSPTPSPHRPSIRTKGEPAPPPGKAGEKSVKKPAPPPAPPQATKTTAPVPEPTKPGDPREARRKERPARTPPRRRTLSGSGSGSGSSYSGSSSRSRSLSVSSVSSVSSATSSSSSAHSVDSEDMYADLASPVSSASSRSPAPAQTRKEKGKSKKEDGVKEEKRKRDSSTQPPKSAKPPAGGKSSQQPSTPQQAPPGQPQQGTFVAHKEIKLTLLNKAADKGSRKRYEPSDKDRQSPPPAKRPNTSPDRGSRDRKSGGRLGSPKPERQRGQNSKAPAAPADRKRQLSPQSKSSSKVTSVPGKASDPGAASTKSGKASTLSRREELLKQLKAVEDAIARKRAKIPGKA

B1: ZCCHC8, endogenous in HeLa cells (protein, UniProt Q6NZY4 1-707)
chain: MAAEVYFGDLELFEPFDHPEESIPKPVHTRFKDDDGDEEDENGVGDAELRERLRQCEETIEQLRAENQELKRKLNILTRPSGILVNDTKLDGPILQILFMNNAISKQYHQEIEEFVSNLVKRFEEQQKNDVEKTSFNLLPQPSSIVLEEDHKVEESCAIKNNKEAFSVVGSVLYFTNFCLDKLGQPLLNENPQLSEGWEIPKYHQVFSHIVSLEGQEIQVKAKRPKPHCFNCGSEEHQMKDCPMPRNAARISEKRKEYMDACGEANNQNFQQRYHAEEVEERFGRFKPGVISEELQDALGVTDKSLPPFIYRMRQLGYPPGWLKEAELENSGLALYDGKDGTDGETEVGEIQQNKSVTYDLSKLVNYPGFNISTPRGIPDEWRIFGSIPMQACQQKDVFANYLTSNFQAPGVKSGNKRSSSHSSPGSPKKQKNESNSAGSPADMELDSDMEVPHGSQSSESFQFQPPLPPDTPPLPRGTPPPVFTPPLPKGTPPLTPSDSPQTRTASGAVDEDALTLEELEEQQRRIWAALEQAESVNSDSDVPVDTPLTGNSVASSPCPNELDLPVPEGKTSEKQTLDEPEVPEIFTKKSEAGHASSPDSEVTSLCQKEKAELAPVNTEGALLDNGSVVPNCDISNGGSQKLFPADTSPSTATKIHSPIPDMSKFATGITPFEFENMAESTGMYLRIRSLLKNSPRNQQKNKKASE
[1]
  binding: binds

B2: NCBP2, CBC component, endogenous in HeLa cells, P52298 1-156 (protein)
chain: MSGGLLKALRSDSYVELSQYRDQHFRGDNEEQEKLLKKSCTLYVGNLSFYTTEEQIYELFSKSGDIKKIIMGLDKMKKTACGFCFVEYYSRADAENAMRYINGTRLDDRIIRTDWDAGFKEGRQYGRGRSGGQVRDEYRQDYDAGRGGYGKLAQNQ
[2]
  binding: binds
